{"source": "paper PMC4117452", "about": "“Immunolocalization of Anti-Hsf1 to the Acetabular Glands of Infectious Schistosomes Suggests a Non-Transcriptional Function for This Transcriptional Activator”", "target": "T1, MBP-SmHsf1 (Schistosoma mansoni) (UniProt G4VTC5)", "T1 sequence (looked up, limits assumed)": "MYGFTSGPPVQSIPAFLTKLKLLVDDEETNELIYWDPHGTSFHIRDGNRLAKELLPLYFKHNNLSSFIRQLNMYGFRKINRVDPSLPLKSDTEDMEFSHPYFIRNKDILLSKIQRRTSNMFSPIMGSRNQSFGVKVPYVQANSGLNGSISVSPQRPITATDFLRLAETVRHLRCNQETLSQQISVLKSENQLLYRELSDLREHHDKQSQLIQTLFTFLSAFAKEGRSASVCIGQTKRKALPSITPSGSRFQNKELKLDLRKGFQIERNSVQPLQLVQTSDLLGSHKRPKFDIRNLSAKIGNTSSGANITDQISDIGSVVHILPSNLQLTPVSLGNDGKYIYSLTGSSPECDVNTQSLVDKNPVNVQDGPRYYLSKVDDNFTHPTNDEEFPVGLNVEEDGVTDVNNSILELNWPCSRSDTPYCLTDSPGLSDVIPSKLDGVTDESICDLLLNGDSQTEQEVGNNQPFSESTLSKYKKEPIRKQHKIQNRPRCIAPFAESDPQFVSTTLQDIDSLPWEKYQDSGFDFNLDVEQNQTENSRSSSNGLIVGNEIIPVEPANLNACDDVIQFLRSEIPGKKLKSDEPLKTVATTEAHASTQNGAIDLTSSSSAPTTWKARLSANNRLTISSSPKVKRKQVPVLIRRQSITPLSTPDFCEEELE", "assay": "EMSA", "settings": "3.5 ug protein, 100 fmol probe, poly-dIdC; LightShift EMSA binding buffer with glycerol, MgCl2, poly-dIdC, NP-40 (concentrations, pH and temperature not stated), 30 min; 5% native PAGE, 0.5x TBE; recombinant protein; protein details: N-terminal MBP (pMAL-c5X); label: 5' biotin on forward strand", "note": "The exact form of at least one protein or probe is not confirmed. Where a protein sequence is shown, tags need not be part of it."}
{"sequence": "TTAGAAGCCGCCGAGAGATCTAGAAAGTTCTAGTACAGATCTACGGAAGACTCTCCT (double strand) [oKI068(ds) HSE -112]", "values": [{"measurement": "binding result", "value": "binds"}]}
